Reference: PubChem BioAssay AID1347423 (Functional Genomics Laboratory (NCATS/FGL), 2020)
Hit rate of the full screen: of about 52,000 sequences, about 210 (0.4%) were called active.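 Rule for the calls: active = gene whose silencing raises cell survival under the drug, median off-target-corrected z-score across its silencing RNAs 2 or more; inactive = the rest.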 The list shows a part of the results.

experiment: Resistance to Poly (ADP-Ribose) Polymerase inhibitor: Gene Identification via Genome-wide siRNA Screen; conditions: mouse BRCA2 R2336H ES cells, olaparib, CellTiter-Glo viability; stronger effect = higher value
Procedure, shortened: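 Mouse BRCA2 R2336H ES cells were reverse-transfected with siRNA (20 nM final), treated at 48 h with 500 nM olaparib, and read by CellTiter-Glo after 72 h. Scores: MAD-based z per siRNA, median per gene, seed off-target correction.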

Sequence | z-score
GCGAUAAAACCCUAAAGCUTT against 1500041N16Rik | inactive: 0.664
GCCUAACAUUGAUAUGUUGTT against Abhd9 | inactive: 1.06
GGUGAAGGCCAAUACAUAUTT against Gatm | inactive: 0.628
GGCUAUGAAAGUGACAAUCTT against 5730449L18Rik | inactive: -1.56
GGAACAGCUGAACUGCUCATT against D15Ertd735e | inactive: 0.882
GGUACCUUCAAAGAAUUGUTT against Snx1 | inactive: 0.481
CCUUGCUGUUCUACUUUGCTT against Olfr1309 | inactive: -1.95
GCAGUAGAUCCUGAUUUUGTT against MGC92959 | inactive: 0.827
GGCCAAGCUAUAAGAAAUGTT against Cntnap2 | inactive: 1.97
GGAAAAAGCAAAUUGAGGATT against Uchl1 | inactive: 2.65
GGACAAUAUCAGAAAGAGUTT against Purg | inactive: -0.519
GGUAAAAACUUUCCUUUAGTT against Rds | inactive: 0.0785
GGAUUAUGGCUUCAUUAAATT against Glmn | inactive: 0.468
GGUUUUCUAUGGAAGAGAUTT against Nope | inactive: 0.387
GGAUUCUUGCACUAUUUAGTT against BC062951 | inactive: 0.0219
GGAAAUUGCACCUUUAAAGTT against Rnf130 | inactive: 1.24
GCCGAGAUGGUCAUAAGCUTT against Rbbp5 | inactive: -0.363
GGAAUCUCCCACUGUUUCCTT against Gpx2 | inactive: -0.533
GGCUGACAGGGACCAAUAUTT against Trf | inactive: 0.372
GGAAGACGAAGAGUUUGGATT against Aqp5 | inactive: -0.427
GGAACUCCGAGUAGACGUGTT against Smyd1 | inactive: 0.336
GCAACAAUGAGAGACCACATT against Htr5a | inactive: 1.34

Reformatted with tabs: entries from further up.
Sequence	z-score
GGUUUUCUAUGGAAGAGAUTT against Nope	inactive: 0.387
GCAACAAUGAGAGACCACATT against Htr5a	inactive: 1.34

Copied from the listing (3 entries):
Sequence | z-score
GCGAUAAAACCCUAAAGCUTT against 1500041N16Rik | inactive: 0.664
GCCUAACAUUGAUAUGUUGTT against Abhd9 | inactive: 1.06
GGUGAAGGCCAAUACAUAUTT against Gatm | inactive: 0.628

Next results.

Sequence | z-score
GGCAGUGGUGAUAUACCAATT against Lpd | inactive: -0.469
GGCUGUGGUGCUCAAUAAGTT against Clstn2 | inactive: 0.495
GGAAAUCGCAUUUAUUGUUTT against Olfr1090 | inactive: -0.171
GGAGCAAGAAAAGAAAGUGTT against Zfp354c | inactive: -0.305
GGGUUAUGUGUUGAGCUCCTT against Bub3 | inactive: -1.33
GGAGUAUUAUGAAGUGUUGTT against Aip | inactive: -0.233
GGGUGCUGUCAACAUAUGATT against Gabrq | inactive: -0.0405
GGCAAUACGUGAAGAAAAATT against B930060C03 | inactive: -0.926
CCUAGUUGAUACCUGUGGUTT against 1110055L24Rik | inactive: 0.707
GGACGAUUUGGGUCACCUUTT against Rabep1 | inactive: -3.35
GCCUUCCUUUUUGUCAUUATT against Olfr1387 | inactive: 1.62
GGAUUCGUCUAGGCUCGUATT against 5830461H18Rik | inactive: -1.61
GGUAGGGACCUAUCCUUGGTT against Tce4 | inactive: -0.551
GCUCUCAUACUUUGAACCUTT against Pank3 | inactive: -0.333
GUGUGCUGUCGAUGUGUCUTT against 4931422A03Rik | inactive: -0.485
GCCAGUGUUAUCCAGGACUTT against Cggbp1 | inactive: -1.63
CGUGGUAGGUCCCAUUAGATT against Usp13 | inactive: -2.1
GGAAGACCUUCAGAGAGAATT against Ell2 | inactive: -0.205
GGUACAGGACCAAGAAUGGTT against 4933437N03Rik | inactive: -1.49
GGCGUAAGGCAAUGUGGGUTT against Ush3a | inactive: -1.07
GGAUUUGUUUGCUUAGCUGTT against Ctbp1 | inactive: -0.795
GGUGAUGGUGAACAAGAAATT against Lgals9 | inactive: -0.422

Sequence | z-score
UGCUGGUGCCUGAUGACCATT against Defcr | inactive: -2.89
GAUAGGGAAUGCCAUACCGTT against G630024C07Rik | inactive: 0.374
CCUCGAACCAAGAUGUUCATT against Pdzrn3 | inactive: -2.02
GACUCUAAACCUAGCAGCGTT against Basp1 | inactive: 1.8
GGUCUUUGGAAAAGACACUTT against 9130427A09Rik | inactive: 1.23
GCUGAAGGGUCUCGUAUUGTT against Hes2 | inactive: 0.234
CCGCCGAUGAGUUUGUUAATT against Hsd17b3 | inactive: 0.907
GGGAUGCAUUACUUACACATT against B230120H23Rik | inactive: 0.55
GGCACAAGAUUAUUUAAGUTT against 2010300G19Rik | inactive: 0.805
GGAAUGGUGAUGGAGUGGATT against 1700113I22Rik | inactive: 0.467
GGAUUUUUAUAACCCACUGTT against Cldn9 | inactive: -0.307
GGGCUGAUGCUUAAACAAATT against V1rg1 | inactive: 0.475
GGUCAUGAUCAAGACACAUTT against 9330187M14Rik | inactive: -0.98
GGAAGCAGAGCAGCUGUUUTT against Skiv2l | inactive: 0.449
GGUUGUCUUGACACCCUACTT against Tnfrsf1b | inactive: 1.61
GCAAUUUCCUGUGUUAAUATT against Rab3c | inactive: 0.498
GUUACAAAACAUCGGUGGGTT against 2210413P10Rik | inactive: -0.457
UGAUAAGGCAGCCGUAUCCTT against Amelx | inactive: -0.6
GGCAGUCACUGGCUAAAUGTT against Ugt2a1 | inactive: 0.831
GGUCAAUAAAGAGUGUGAATT against 2200001I15Rik | inactive: -2.26
GGUCUGACAUUACUCAAAUTT against Rad51 | inactive: 0.335
GGUCUGGAGACAAUCAUCATT against 9930039A11Rik | inactive: -0.129
